According to PubChem BioAssay AID651640 (Broad Institute, 2012):
“And” between values parts separate entries of the source, which are not always exact repeats. Identical values can stand only once. Among all 350,000 compounds or so, about 6,000 (1.7%) were called active. This list was built around the results that the source calls inconclusive (neither active nor inactive); the mix of calls is not that of the screen. No stated cut-off is given here; in the data, active means CPE inhibition above about 20% (passing the limit was not always enough); inconclusive means no clear call, values can overlap the other calls; tested in BHK-21 cells. Some structures have more than one record in an assay (separate samples or runs), and their calls can disagree.

Test: protection of cells from dengue 2 killing – plate reader, single concentration, primary screen (AID 651640);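 further: 0% = median of neutral control wells and 100% = median of positive control wells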
Conditions: DENV2-infected cells, cytopathic effect rescue, at 9.99 µM, stronger effect = higher value
With Cc1cccc(C(=O)N2CCC[C@H]2C(=O)N2CCC[C@H]2C(=O)NCc2ccncc2)c1 the CPE inhibition was inconclusive: 31.5%.
In the case of CO[C@@H]1CN(C)C(=O)c2ccc(NC(=O)C3CCC3)cc2OC[C@H](C)N(Cc2cccnc2)C[C@@H]1C, the CPE inhibition is reported as inconclusive: 21.6%.
With COc1ccc2nc(C)cc(N/N=C/c3ccc(F)cc3)c2c1 the CPE inhibition was inactive: -27.4%.
For CCCNC(=O)C1(C)CCCN(Cc2ccc(C#N)cc2)C1 (centres undefined), the CPE inhibition was active: 48%.
In the case of C[C@H]1CCCCO[C@H](CN(C)C)[C@@H](C)CN([C@@H](C)CO)C(=O)c2cc(NS(=O)(=O)c3ccccc3)ccc2O1, the CPE inhibition is reported as inconclusive: 38.6%.
For CCOC(=O)N1CCN(C(=O)C2CCN(S(=O)(=O)c3cc(C)ccc3OC)CC2)CC1, the CPE inhibition was inactive: 2.6%.
In the case of COc1cccc(C(c2nnnn2C2CCCC2)N2CCN(C/C=C/c3ccccc3)CC2)c1OC (centres undefined), the CPE inhibition is reported as inconclusive: 21.1%.
In the case of Cc1ccccc1OCc1n[nH]c(=S)n1-c1cccc(Cl)c1, the CPE inhibition is reported as inconclusive: 27.2%.
With O=C(Nc1ccc(F)cc1)N1CCCCN2[C@H](C1)[C@H](c1ccc(-c3cccc(F)c3)cc1)[C@@H]2CO the CPE inhibition was inconclusive: 22.1%.
For CCOC(=O)Cc1csc(NC(=O)Nc2ccc(OC(F)(F)F)cc2)n1, the CPE inhibition was inactive: -4.54%.
In the case of O=C(N[C@H]1CC[C@H](CCn2cc(C3(O)CCCC3)nn2)O[C@@H]1CO)C1CC1, the CPE inhibition is reported as inactive: 5.48%.
For CCOc1ccc(-n2ccnc(SCC(=O)Nc3cccc(OC)c3)c2=O)cc1, the CPE inhibition was inconclusive: 40.2%.
For O=C(CC1CC1)N[C@H]1C[C@@H]2O[C@@H](CO)CC[C@@H]2O[C@@H]1CCc1ccc(C#Cc2ccccc2)cc1, the CPE inhibition was active: 21.3%.
For COc1ccc(S(=O)(=O)N2CCOCC2)cc1NC(=O)Cc1sc(C)nc1-c1ccc(F)cc1, the CPE inhibition was inconclusive: 39.1%.
With O=C(NC(=S)N1CCN(C/C=C/c2ccccc2)CC1)c1c(F)cccc1F the CPE inhibition was inconclusive: 24.3%.
For O=C(NC1CCCCCCC1)C1CCCN(S(=O)(=O)c2cnc[nH]2)C1 (centres undefined), the CPE inhibition was inconclusive: 40.4%.
With COc1ccc(NC(=O)N2[C@@H]3CNC[C@H]2C3c2ccc(-c3ccc(C)cc3)cc2)cc1 (some centres undefined) the CPE inhibition was inactive: -7.84% and active: 32.7%.
With CSc1nnc(C)c(/C=C/Nc2ccc(F)cc2F)n1 the CPE inhibition was inconclusive: 31%.
In the case of COCC(=O)N(C)C[C@H]1Oc2cc(Br)ccc2S(=O)(=O)N([C@H](C)CO)C[C@H]1C, the CPE inhibition is reported as inactive: 21.7% and active: 31.3%.
For O=C(NCc1ccccc1)[C@H]1CCCN1, the CPE inhibition was inconclusive: 22.4%.
In the case of C[C@@H]1CCCCO[C@@H](CN(C)Cc2ccncc2)[C@@H](C)CN([C@H](C)CO)C(=O)c2cc(NC(=O)c3ccncc3)ccc2O1, the CPE inhibition is reported as inconclusive: 27.7%.
In the case of O=C(CCCN1C(=O)/C(=C\c2cccs2)SC1=S)Nc1cccnc1, the CPE inhibition is reported as active: 29.7%.
In the case of CN(C)c1ccc(-n2cccc2/C=C/[N+](=O)[O-])cc1, the CPE inhibition is reported as inconclusive: 71.3%.
In the case of C[C@@H]1CCCCO[C@H](CN(C)S(=O)(=O)c2cccs2)[C@H](C)CN([C@H](C)CO)C(=O)c2cc(NC(=O)c3ccccc3)ccc2O1, the CPE inhibition is reported as active: 56.2%.
With COc1cccc(-c2cnc3c(c2)C(=O)N([C@H](C)CO)C[C@H](C)[C@H](CN(C)C(=O)Nc2cccc4ccccc24)O3)c1 the CPE inhibition was inactive: -9.65%.
With Cc1cccc(C)c1-n1nnnc1C1(C)CCC(=O)N1Cc1cccnc1 (centres undefined) the CPE inhibition was active: 37.6%.
With COC(=O)N/N=C/c1cn(Cc2ccc(Cl)cc2Cl)c2ccccc12 the CPE inhibition was inconclusive: 29.4%.
In the case of CCOc1ccccc1CNS(=O)(=O)c1ccc2c(c1)oc(=O)n2C, the CPE inhibition is reported as inconclusive: 31%.
In the case of CC(/C=N/N1CCN(c2ccccn2)CC1)=C\c1ccccc1, the CPE inhibition is reported as active: 22.8%.
With N#C[C@H]1[C@H](c2ccccc2)[C@@H](CO)N1C(=O)c1cc(Cl)cc(Cl)c1 the CPE inhibition was inconclusive: 45.3%.
For N#Cc1cccc(C(=O)Nc2cccc(S(=O)(=O)N3CCCC3)c2)c1, the CPE inhibition was inconclusive: 48.6%.
In the case of O=C(C[C@H]1CC[C@@H]2[C@H](COC[C@H](O)CN2S(=O)(=O)c2cccc(Cl)c2)O1)N1CCOCC1, the CPE inhibition is reported as active: 20.8%.
For Cc1cc(S(=O)(=O)NC2CCCC2)ccc1-n1cnnn1, the CPE inhibition was inconclusive: 20.1%.
With COc1ccc2c(C)cc(N3CCN(Cc4ccccc4)CC3)nc2c1 the CPE inhibition was inconclusive: 24.9%.
For CCCN(C)C[C@@H]1Oc2cc(C#CC(C)(C)O)ccc2S(=O)(=O)N([C@@H](C)CO)C[C@@H]1C, the CPE inhibition was inconclusive: 23.4%.
With COC(=O)N1[C@H](C)C=C[C@]1(Cc1ccccc1)C(=O)O the CPE inhibition was inconclusive: 45.2%.
With Cc1noc(C)c1NC(=O)N(C)C[C@H]1Oc2c(cccc2N(C)C)C(=O)N([C@@H](C)CO)C[C@@H]1C the CPE inhibition was active: 24.5%.
In the case of Cc1cc(N2CCCCC2)ccc1[N+](=O)[O-], the CPE inhibition is reported as inconclusive: 21.4%.
With C[C@H]1CN([C@@H](C)CO)C(=O)c2cc(C3=CCCC3)cnc2O[C@@H]1CN(C)Cc1cccnc1 the CPE inhibition was inconclusive: 28.8%.
In the case of Cc1ccc(SCCc2cc[n+](CC(=O)c3ccccc3)cc2)cc1, the CPE inhibition is reported as inactive: -7.83%.
With COc1nccnc1NS(=O)(=O)c1ccc(NC(=S)NC(=O)c2ccc(F)c(F)c2)cc1 the CPE inhibition was inconclusive: 22.6%.
With COc1cccc(C=O)c1OC(=O)N1CCOCC1 the CPE inhibition was inconclusive: 24.6%.
For CC(C)c1ccccc1OCCCCN1CCCCC1, the CPE inhibition was active: 29.9%.
In the case of O=C(COC(=O)c1cncc(Br)c1)NC1CCCC1, the CPE inhibition is reported as inconclusive: 20.8%.
In the case of COc1ccc(CN(C)C[C@H]2OCCCC[C@H](C)Oc3ccc(NC(=O)CCC(F)(F)F)cc3C(=O)N([C@H](C)CO)C[C@@H]2C)cc1, the CPE inhibition is reported as active: 28.8%.
In the case of Cc1noc(C)c1S(=O)(=O)Nc1ccc2c(c1)C(=O)N([C@@H](C)CO)C[C@H](C)[C@@H](CN(C)Cc1ccncc1)OCCCC[C@@H](C)O2, the CPE inhibition is reported as active: 22%.
With Cc1ccc(NC(=O)CN(C)C(=O)COc2ccc(Br)cc2)cc1 the CPE inhibition was inconclusive: 53.6%.
With CN(C)C(=O)C[C@@H]1CC[C@@H](NC(=O)C2CCC2)[C@@H](CO)O1 the CPE inhibition was inconclusive: 41.4%.
With Cc1cc(Br)c2c(c1)C1(OCCO1)C(=O)N2 the CPE inhibition was inactive: -3.05%.
